Out of some 330,000 compounds screened, about 7,700 (2.3%) were called active. This list was built around the results that the source calls inconclusive (neither active nor inactive); the mix of calls is not that of the screen. The call rests on the fitted dose curve; in most records, active means well fitted inhibition curve with a large enough effect; inconclusive means small, poorly fitted or top-dose-only effect, or effect the other way; inactive means flat fitted curve, though single readings scatter. Potencies of inconclusive entries are doubtful fits and often do not repeat.
test: qHTS screen for small molecules that inhibit ELG1-dependent DNA repair in human embryonic kidney (HEK293T) cells expressing luciferase-tagged ELG1; details: HEK293T ELG1-luciferase reporter, luminescence, 16 h, DNA damage induced by 5-fluorouridine; activity change, negative = inhibition: at 46.1 µM (top of the series); further: nearly all actives have a fitted effect of over 55% in size
Method in brief: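 Quantitative HTS, concentration-response format. 2,000 cells/well co-treated with 5-fluorouridine and compound, 16 hr in 5% CO2 at 37 °C; ONE-Glo luminescence read after 30 min.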
On the % scale 0 is the no-effect control and ±100 the full control effect; potency means the concentration at half of the fitted maximal effect.

| SMILES | Potency | activity change, negative = inhibition |
| --- | --- | --- |
| CC(=O)N1CCC(=NNc2nc3ccccc3[nH]2)CC1 | inconclusive: 7.3 µM [activator, partial curve] |  |
| Cc1c(C(=O)NCC2CCCO2)sc2nc(-c3ccc(F)cc3)cn12 (stereo unspecified) | inactive |  |
| CCOC(=O)c1sc(NC(=O)COC(=O)CNC(=O)c2ccco2)c(C(=O)OCC)c1C | inconclusive: 18.4 µM [inhibitor, single point] |  |
| C(=N\Nc1nccc(-c2cccnc2)n1)/c1ccccc1 | inconclusive: 7.3 µM [activator, partial curve] |  |
| O=C(CN1C(=O)c2ccccc2C1=O)Nc1sc2c(c1C(=O)NCc1ccco1)CCCC2 | inconclusive: 18.4 µM [inhibitor, single point] |  |
| Cc1nc(NC(=O)c2ccccc2)sc1C1(C)CC(c2c(Cl)cccc2Cl)=NO1 (stereo unspecified) | inconclusive: 20.6 µM [inhibitor, partial curve, poor fit] |  |
| CCOC(=O)N1CCN(Cc2cc(Cl)c3cccnc3c2O)CC1 | active: 3.66 µM |  |
| CN(C)C(=O)c1ccc(NC(=O)c2cc(-c3ccco3)nc3ccccc23)cc1 | inactive |  |
| CCCCc1ccc(NC(=O)c2ccc(NS(C)(=O)=O)cc2)cc1 | inactive |  |
| O=C(Nc1nnc(-c2ccc(F)cc2)o1)c1ccc(S(=O)(=O)N2CCOCC2)cc1 | active: 7.3 µM |  |
| COc1ccc2c(Cl)c(C(=O)NCc3ccco3)sc2c1 | inconclusive: 13 µM [activator, partial curve] |  |
| Cc1cccc(NC(=S)Nn2cnnc2)c1C |  | inconclusive: 234% [activator] |
| Cc1sc2ncnc(N3CCC(C(=O)Nc4nc5ccc(Cl)cc5s4)CC3)c2c1C | inconclusive: 3.98 µM [activator, partial curve] |  |
| COc1cccc(N=Nc2c(N)[nH]n3c(=O)c4c(nc23)CCCC4)c1 | inconclusive: 29.1 µM [inhibitor, single point] |  |
| O=C(c1ccco1)N1CCN(C(=S)Nc2cccc([N+](=O)[O-])c2)CC1 | inconclusive: 32.6 µM [inhibitor, single point] |  |
| COCCNC(=O)c1ccccc1NC(=O)c1ccc(OC)c(OC)c1 | inconclusive: 23.1 µM [inhibitor, partial curve] |  |
| CCCOc1ccc(-c2c(=O)n(O)c3ccccc3[n+]2[O-])cc1 | inconclusive: 12.6 µM [activator, partial curve] |  |
| CC(=O)Nc1ccc(NC(=O)Nc2ccccc2C)cc1 | inconclusive: 29.1 µM [activator, single point] |  |
| C=CCNC(=O)/C(C#N)=C/c1ccccc1Cl | inconclusive: 29.1 µM [activator, single point] |  |
| Cn1cnnc1SCC(=O)N1c2ccccc2-c2c(ssc2=S)C1(C)C | inactive |  |
| CC(C)CC(=O)NC(=S)Nc1cccc(NC(=O)c2ccccc2Cl)c1 | inconclusive: 23.1 µM [inhibitor, partial curve] |  |
| COc1cccc(/C=N/NC(=O)c2[nH]nc3c2CCc2ccccc2-3)c1O | inconclusive: 3.26 µM [inhibitor, partial curve, poor fit] |  |
| COC(=O)CSc1nnc(CNC(=O)c2ccccc2F)n1-c1ccc(F)cc1 | inactive |  |
| N#CCCN(C(=O)CN1c2cccc3cccc(c23)S1(=O)=O)c1ccccc1 | inactive |  |

| SMILES | Potency | activity change, negative = inhibition |
| --- | --- | --- |
| COc1cccc(CNC(=O)C2CCC(=O)N(CCc3cccc(F)c3)C2)c1 (stereo unspecified) | inactive |  |
| COc1cc(/C=N/NC(=O)c2ccc(CSc3nc4ccccc4[nH]3)cc2)cc(OC)c1OC | active: 7.31 µM |  |
| O=C(Nc1nc2ccccc2s1)c1ccccc1 | inconclusive: 0.92 µM [activator, partial curve] |  |
| O=C(c1ccc2c3c(cccc13)CC2)C1CCCN(Cc2cccnc2)C1 (stereo unspecified) | inactive |  |
| Cc1ccc(NC(=O)Nc2ccc([N+](=O)[O-])cc2)nc1 | inconclusive: 20.6 µM [activator, single point] |  |
| S=c1nc(-c2ccc(Br)cc2)oc2c1CCCC2 | inconclusive: 8.2 µM [activator, partial curve] |  |
| COC(=O)c1sccc1NC(=O)Nc1ccc(C(C)=O)cc1 | inconclusive: 29.1 µM [activator, single point] |  |
| CCOC(=O)C1=CN(Cc2cccc(F)c2)S(=O)(=O)NC1c1ccc(Br)cc1F (stereo unspecified) | inconclusive: 29.1 µM [inhibitor, single point] |  |
| CCSc1nnc(NC(=O)C2CCN(C(=O)c3ccc(F)cc3)CC2)s1 | inactive |  |
| COc1ccccc1NC(=O)c1ccccc1NC(=O)c1cccs1 | inactive |  |
| C/C(=N\NC(=O)CNc1cccc(C(F)(F)F)c1)c1ccc(Br)cc1 | inconclusive: 4.61 µM [inhibitor, partial curve, poor fit] |  |
| COc1ccc(/C=C2/Sc3ccc(C(=O)N4CCOCC4)cc3NC2=O)cc1OC | inconclusive: 23.1 µM [inhibitor, partial curve] |  |
| CCCCCCCCCCCCCCCC[n+]1ccc(/C=N/O)cc1 | inconclusive: 23.1 µM [inhibitor, partial curve, poor fit] |  |
| CCN(CC)CCn1c2c(c(SCC(=O)Nc3cc(C)on3)nc1=O)CCCC2 | inactive |  |
| C=CCNC(=O)c1ccc2c(=O)n(CCCN3CCCC3=O)c(=S)[nH]c2c1 | inactive |  |
| O=C(Nc1ccc(N2CCN(C(=O)c3ccco3)CC2)cc1)c1ccccc1F | inconclusive: 22.4 µM [inhibitor, single point] |  |
| CC(=O)N1c2ccc(S(=O)(=O)N(C)CC(=O)Nc3ccccc3C)cc2CC1C (stereo unspecified) | active: 16.4 µM |  |
| CSCCC1NC2(C(=O)Nc3c(Cl)cccc32)[C@@H]2C(=O)N(C3CCCC3)C(=O)[C@H]12 (stereo partly specified) | inconclusive: 18.4 µM [inhibitor, single point] |  |
| O=C(NNC(=O)C(O)(c1ccccc1)c1ccccc1)C1CC1 | inactive |  |
| Cc1ccc(CNC(=O)C2CCN(S(=O)(=O)N3CCCC3)CC2)cc1 | inactive |  |
| Cc1cccc(NC(=O)c2ccc(S(=O)(=O)N3CC(C)OC(C)C3)cc2)n1 (stereo unspecified) | inactive |  |
| O=C1N(Cc2ccc(F)cc2)CCN1c1ccc(F)cc1 | inconclusive: 29.1 µM [activator, single point] |  |
| Cc1c(C=O)c2ccccn2c1C(=O)c1ccccc1Cl | inconclusive: 29.1 µM [inhibitor, single point] |  |
| COc1ccc(COn2c(=O)c(C)[n+]([O-])c3ccccc32)cc1OC | inconclusive: 8.2 µM [inhibitor, partial curve, poor fit] |  |

Rewritten comma-delimited: 20 of the compounds above
SMILES,Potency,"activity change, negative = inhibition"
COc1cccc(CNC(=O)C2CCC(=O)N(CCc3cccc(F)c3)C2)c1 (stereo unspecified),inactive,
COc1cc(/C=N/NC(=O)c2ccc(CSc3nc4ccccc4[nH]3)cc2)cc(OC)c1OC,active: 7.31 µM,
O=C(Nc1nc2ccccc2s1)c1ccccc1,"inconclusive: 0.92 µM [activator, partial curve]",
O=C(c1ccc2c3c(cccc13)CC2)C1CCCN(Cc2cccnc2)C1 (stereo unspecified),inactive,
S=c1nc(-c2ccc(Br)cc2)oc2c1CCCC2,"inconclusive: 8.2 µM [activator, partial curve]",
COC(=O)c1sccc1NC(=O)Nc1ccc(C(C)=O)cc1,"inconclusive: 29.1 µM [activator, single point]",
CCOC(=O)C1=CN(Cc2cccc(F)c2)S(=O)(=O)NC1c1ccc(Br)cc1F (stereo unspecified),"inconclusive: 29.1 µM [inhibitor, single point]",
COc1ccccc1NC(=O)c1ccccc1NC(=O)c1cccs1,inactive,
C/C(=N\NC(=O)CNc1cccc(C(F)(F)F)c1)c1ccc(Br)cc1,"inconclusive: 4.61 µM [inhibitor, partial curve, poor fit]",
COc1ccc(/C=C2/Sc3ccc(C(=O)N4CCOCC4)cc3NC2=O)cc1OC,"inconclusive: 23.1 µM [inhibitor, partial curve]",
CCCCCCCCCCCCCCCC[n+]1ccc(/C=N/O)cc1,"inconclusive: 23.1 µM [inhibitor, partial curve, poor fit]",
CCN(CC)CCn1c2c(c(SCC(=O)Nc3cc(C)on3)nc1=O)CCCC2,inactive,
C=CCNC(=O)c1ccc2c(=O)n(CCCN3CCCC3=O)c(=S)[nH]c2c1,inactive,
O=C(Nc1ccc(N2CCN(C(=O)c3ccco3)CC2)cc1)c1ccccc1F,"inconclusive: 22.4 µM [inhibitor, single point]",
CC(=O)N1c2ccc(S(=O)(=O)N(C)CC(=O)Nc3ccccc3C)cc2CC1C (stereo unspecified),active: 16.4 µM,
CSCCC1NC2(C(=O)Nc3c(Cl)cccc32)[C@@H]2C(=O)N(C3CCCC3)C(=O)[C@H]12 (stereo partly specified),"inconclusive: 18.4 µM [inhibitor, single point]",
O=C(NNC(=O)C(O)(c1ccccc1)c1ccccc1)C1CC1,inactive,
Cc1cccc(NC(=O)c2ccc(S(=O)(=O)N3CC(C)OC(C)C3)cc2)n1 (stereo unspecified),inactive,
O=C1N(Cc2ccc(F)cc2)CCN1c1ccc(F)cc1,"inconclusive: 29.1 µM [activator, single point]",
Cc1c(C=O)c2ccccn2c1C(=O)c1ccccc1Cl,"inconclusive: 29.1 µM [inhibitor, single point]",

Going on with the list:

| SMILES | Potency | activity change, negative = inhibition |
| --- | --- | --- |
| O=S(=O)(Nc1cc(Cl)ccc1-n1cncn1)c1cc(Br)ccc1Br | active: 23.1 µM |  |
| FC(F)(F)c1cccc(Cc2noc(CN3CCC(c4ccncc4)CC3)n2)c1 | inactive |  |
| N=C(N)SCc1cccc2ccccc12 | inconclusive: 6.51 µM [inhibitor, partial curve] |  |
| C=CCn1c(SCc2nc3c(c(=O)[nH]c(=O)n3CCCC)n2CCC)nnc1-c1ccccc1 | active: 18.4 µM |  |
| CCOc1ccc(Br)cc1S(=O)(=O)NC1CCCC1 | inactive |  |
| O=S(=O)(NCc1ccccn1)c1ccc(Cl)c(C(F)(F)F)c1 | inactive |  |
| COc1cc(-c2nc(-c3ccccc3)c(-c3ccc(F)cc3)[nH]2)cc2c1OCO2 | inconclusive: 14.6 µM [inhibitor, partial curve] |  |
| CCn1cnc2cc(NCc3ccc(N(C)C)cc3)ccc21 | inconclusive: 25.9 µM [activator, partial curve] |  |
| Cc1ccc(COn2c(-c3ccc(Cl)cc3)nc3ccc([N+](=O)[O-])cc32)cc1 | inconclusive: 25.9 µM [activator, partial curve] |  |
| Clc1cccc(/C(Cc2nc3ccccc3[nH]2)=N\Nc2ccccc2)c1 | inconclusive: 11.6 µM [activator, partial curve] |  |
| O=C(NCCC(=O)N1CCC2(CC1)NCCc1[nH]cnc12)c1cccc(Cl)c1 | inconclusive: 32.6 µM [activator, partial curve, poor fit] |  |
| CCc1cc2c(=O)c(-c3cscn3)coc2cc1O | inconclusive: 11.6 µM [activator, partial curve, poor fit] |  |
| O=C(NC(=S)Nc1ccc(N2CCOCC2)c(Cl)c1)c1cncc(Br)c1 | inconclusive: 29.1 µM [inhibitor, single point] |  |
| COc1ccc(OC)c(/C=N/NC(=S)NCCc2ccccc2)c1 | inconclusive: 29.1 µM [inhibitor, single point] |  |
| Cc1c2cnn(CC(=O)N3CCOCC3)c(=O)c2c(C)n1Cc1ccccc1F | inactive |  |
| O=c1c(O)c(-c2cccs2)oc2ccccc12 | inconclusive: 29.1 µM [inhibitor, single point] |  |
| O=C(NCC(=O)N(c1ccccc1)C(C(=O)NC1CCCCC1)c1cccnc1)c1ccco1 (stereo unspecified) | inactive |  |
| Cc1ccc(Nc2nc(-c3sc(NC(=O)c4ccc([N+](=O)[O-])cc4)nc3C)cs2)cc1 | inconclusive: 5.8 µM [inhibitor, single point] |  |
| C=CCn1c(SCC(=O)N2c3ccccc3Sc3ccccc32)nnc1-c1ccco1 | inconclusive: 23.1 µM [inhibitor, partial curve] |  |
| COc1ccc(Nc2nc(C)cc(C)n2)cc1Cl | inconclusive: 16.4 µM [activator, partial curve, poor fit] |  |
| O=C(O)COc1ccccc1C=NNC(=O)c1ccccc1NS(=O)(=O)c1cccs1 | inactive |  |
| O=C(COC(=O)c1ccccc1Cl)NCCC1=CCCCC1 | inconclusive: 23.1 µM [activator, partial curve, poor fit] |  |
| CCCCc1ccc(NC(=O)N2CCN(c3cc(C)nc4ccccc34)CC2)c(C)c1 | inconclusive: 23.1 µM [inhibitor, single point] |  |
